Assay results: PubChem BioAssay AID504834 (National Center for Advancing Translational Sciences (NCATS), 2011)
Among all 320,000 compounds or so, about 22,000 (6.9%) were called active. Inconclusive results, whose numbers are uncertain, are shown with a selection of clear calls. Calls follow the shape of the dose curve; as a rule, active = well fitted inhibition curve with a large enough effect; inconclusive = small, poorly fitted or top-dose-only effect, or another doubt; inactive = no such curve, though single readings can be large or run the other way. A potency beside an inconclusive call is a rough fit, not a confirmed value.

assay: Primary qHTS for delayed death inhibitors of the malarial parasite plastid, 96 hour incubation; details: P. falciparum luciferase reporter growth; series mostly up to 28.7 µM; activity change, negative = inhibition: at the top concentration
Outline: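 Compounds incubated with erythrocytes infected by luciferase-expressing P. falciparum (2% hematocrit, 0.05% parasitemia final) for 96 hours, 37 C in 5% CO2. Growth inhibition scored as decreased luciferase luminescence.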
% is scaled to controls: 0 for no effect and ±100 for the full control effect; potency is read from the fitted curve at half-maximal effect.

Row | Structure (SMILES) | Potency | activity change, negative = inhibition
1 | Fc1ccc(NCc2cccnc2)cc1F | inconclusive: 11.7 µM [inhibitor, partial curve, poor fit] | –
2 | CCCCOc1ccc(C(=O)N/C(=C/C=C/c2ccccc2)C(=O)N2CCOCC2)cc1 | inconclusive: 5.86 µM [inhibitor, partial curve, poor fit] | –
3 | c1ccc2c(c1)CCN(c1ncnc3c1[nH]c1ccccc13)C2 | active: 7.38 µM | –
4 | O=C(CC(Sc1ccc(Br)cc1)C(=O)O)c1ccc(F)cc1 (stereo not drawn) | inconclusive: 9.28 µM [inhibitor, single point] | –
5 | O=C(c1ccc(S(=O)(=O)Nc2cccc(C(F)(F)F)c2)cc1)N1CCC1 | inconclusive: 18.5 µM [inhibitor, single point] | –
6 | Cc1cc(NC(=S)N(CCN2CCCCC2)Cc2ccco2)ccc1Cl | inconclusive: 18.5 µM [inhibitor, partial curve, poor fit] | –
7 | CCc1cc(=O)oc2cc(C)cc(OC(C)C(=O)NCC(O)c3ccccc3)c12 (stereo not drawn) | inconclusive: 0.37 µM [inhibitor, full curve, poor fit] | –
8 | COc1ccc(NS(=O)(=O)c2cc(NC(=O)c3cccc(OCc4c(C)noc4C)c3)ccc2OC)cc1 | active: 6.57 µM | –
9 | CCOC(=O)c1c(-n2c(C)cc(C=C3C(=O)NC(=S)NC3=O)c2C)sc2c1CCCC2 | active: 11.7 µM | –
10 | O=C1/C(=C/c2ccncc2)Oc2cc(OS(=O)(=O)c3ccccc3)ccc21 | inconclusive: 18.5 µM [inhibitor, single point] | –
11 | COc1ccc(NC(=O)NCCCN2CCC(Cc3ccccc3)CC2)cc1 | inconclusive: 18.5 µM [inhibitor, single point] | –
12 | Cc1ccc(OCC(=O)NCCCNC(=O)c2cnccn2)cc1C | – | inactive: -7.11%
13 | CC(C)(C)c1ccc(C(=O)N2CCC(=O)N(C(CO)Cc3ccccc3)CC2)cc1 (stereo not drawn) | inconclusive: 14.7 µM [inhibitor, partial curve, poor fit] | –
14 | NS(=O)(=O)c1cccc(NC(=O)COC(=O)CN2C(=O)C3CC=CCC3C2=O)c1 (stereo not drawn) | – | inactive: 28.7%
15 | Cc1ccc(C(=O)NN2C(=O)c3ccc(S(=O)(=O)c4ccc(C(=O)O)cc4)cc3C2=O)cc1 | inconclusive: 11.7 µM [inhibitor, single point] | –
16 | CC(CNC(=O)c1ccc(NC2=NC3CS(=O)(=O)CC3S2)cc1)c1ccccc1 (stereo not drawn) | inconclusive: 18.5 µM [inhibitor, single point] | –
17 | O=S1(=O)N=C(N/N=C/c2ccc(Br)o2)c2ccccc21 | inconclusive: 13.1 µM [inhibitor, single point] | –
18 | NS(=O)(=O)c1ccc(NC(=O)c2cc(-c3cc(Cl)ccc3O)n[nH]2)cc1 | inconclusive: 14.7 µM [inhibitor, single point] | –
19 | Cc1ccc(-n2nnnc2SC(C)C(=O)NCC(=O)Nc2ccc(F)c(F)c2F)c(C)c1 (stereo not drawn) | inconclusive: 18.5 µM [inhibitor, single point] | –
20 | CC1=CCC2C(=O)N(c3ccc(C)c(Br)c3)C(=O)C2C1 (stereo not drawn) | inconclusive: 10.4 µM [inhibitor, single point] | –
21 | CN1CCN(c2ccccc2NC(=O)C(Cc2ccccc2)n2cccc2)CC1 (stereo not drawn) | inconclusive: 3.7 µM [inhibitor, partial curve, poor fit] | –
22 | Cc1ccccc1NC(=O)C(C)O/N=C/c1cccc([N+](=O)[O-])c1 (stereo not drawn) | inconclusive: 9.28 µM [inhibitor, single point] | –

Full records from above. Order of values: Potency | activity change, negative = inhibition
CC(CNC(=O)c1ccc(NC2=NC3CS(=O)(=O)CC3S2)cc1)c1ccccc1 (stereo not drawn) as listed: inconclusive: 18.5 µM [inhibitor, single point] | –
CC1=CCC2C(=O)N(c3ccc(C)c(Br)c3)C(=O)C2C1 (stereo not drawn) as listed: inconclusive: 10.4 µM [inhibitor, single point] | –

Additional results follow.

Row | Structure (SMILES) | Potency | activity change, negative = inhibition
23 | O=C(CSCC(=O)OCC(=O)c1ccc(Br)cc1)Nc1cccc2ccccc12 | – | inactive: 103%
24 | N/C(=N\OC(=O)c1ccoc1)c1ccc(Br)cc1 | – | inactive: 12.3%
25 | OC1(c2ccc(F)cc2)CCN(Cc2cccnc2)CC1 | inconclusive: 10.4 µM [inhibitor, single point] | –
26 | COc1ccc(-c2c(-c3ccccc3OC)sc3ccccc23)cc1 | inconclusive: 8.28 µM [inhibitor, partial curve, poor fit] | –
27 | O=C(c1cnccn1)N1CCN(C/C=C/c2ccccc2)CC1 | inconclusive: 3.7 µM [inhibitor, single point] | –
28 | C/C(=C(/CCO)SSCC1CCCO1)N(C=O)Cc1cnc(C)nc1N (stereo not drawn) | inconclusive: 16.5 µM [inhibitor, single point] | –
29 | COc1ccc(OC)c(C(=O)N2CCCC(Nc3ccc(F)cc3)C2)c1 (stereo not drawn) | – | inactive: 97.4%
30 | COc1cc(C(=O)NC2CCCc3ccccc32)cc(OC)c1OC (stereo not drawn) | inconclusive: 0.928 µM [inhibitor, partial curve, poor fit] | –
31 | COc1ccc(-c2cc(C(=O)N3CCN(c4ccccc4F)CC3)c3ccccc3n2)c(OC)c1 | – | inactive: -12.3%
32 | COc1cccc(-n2cc(C(=O)NC(C)C)c3ccccc3c2=O)c1 | active: 1.31 µM | –
33 | Cc1ccccc1N=C(NO)c1nonc1N | – | inactive: 65.8%
34 | COc1ccc(-c2nnn(CC(=O)N(CCO)C(C(=O)NC3CCCC3)c3ccc(F)cc3)n2)cc1 (stereo not drawn) | – | inactive: 11.1%
35 | CCc1ccc(NC(=O)C2CCCN(S(=O)(=O)c3cccs3)C2)cc1 (stereo not drawn) | inconclusive: 16.5 µM [inhibitor, partial curve, poor fit] | –
36 | COc1ccc(N2CCN(C3CCCN(S(=O)(=O)c4ccc(C)cc4C)C3)CC2)cc1 (stereo not drawn) | inconclusive: 10.4 µM [inhibitor, single point] | –
37 | Cc1ccccc1NCCNc1ccccc1C | – | inactive: -15.4%
38 | COC(=O)c1[nH]c2cccc(Cl)c2c1NC(=O)CN(C)C1CCCCC1 | active: 8.28 µM | –
39 | CC1SC(=S)N(c2ccc(N(C)C)cc2)C1=O (stereo not drawn) | inconclusive: 8.28 µM [inhibitor, partial curve, poor fit] | –
40 | C/C(=N\NC(=O)c1cc(O)ccc1O)c1cccc(NC(=O)c2cccc(Cl)c2)c1 | inconclusive: 18.5 µM [inhibitor, single point] | –
41 | COc1ccc(-n2nc3c(c2NC(=O)CCl)CSC3)cc1 | inconclusive: 1.17 µM [inhibitor, full curve] | –
42 | Cc1nn(-c2ccc(C(=O)O)cc2)c(C)c1Cl | – | inactive: 34.5%
43 | Cc1cccc(NC(=O)c2cc(-c3cc(C)ccc3O)n[nH]2)c1 | inconclusive: 2.94 µM [inhibitor, full curve, poor fit] | –
